Assay results taken from publication PMC7819943, “Rice protein-binding microarrays: a tool to detect cis-acting elements near promoter regions in rice”.
The list shows a part of the results.

Amino acid sequences for entries named in this document (tags omitted).
UniProt Q0JBA9, entry or part of it: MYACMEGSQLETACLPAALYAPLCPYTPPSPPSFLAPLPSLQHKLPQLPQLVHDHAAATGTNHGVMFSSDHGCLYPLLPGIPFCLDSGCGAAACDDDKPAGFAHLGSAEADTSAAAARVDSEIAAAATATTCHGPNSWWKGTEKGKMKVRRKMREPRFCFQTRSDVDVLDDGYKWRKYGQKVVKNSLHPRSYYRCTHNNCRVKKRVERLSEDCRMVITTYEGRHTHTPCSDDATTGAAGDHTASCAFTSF

Each sequence was assayed against OsWRKY34 (Oryza sativa, UniProt Q0JBA9 1-250) (assay: protein-binding microarray (RPBM); PBS, 2% BSA, 51.3 ng/ul salmon testes DNA, 50 uM zinc acetate, 200 nM TF, 25 C, 1 h; high values mean tight binding). Details: protein: recombinant; tags: N-terminal polyhistidine and DsRed monomer fusion (pET32a); label: CyDye5-dUTP incorporated in the synthesized complementary strand; 3' TTTTT single-stranded linker to array surface; dsDNA, one strand shown.
In short: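 The binding signal for each feature is its fluorescence intensity in arbitrary units. An Axon 4000B scanner was used to read a custom Agilent array that had been made double-stranded with Cy5-dUTP primer extension, blocked with 2% BSA, incubated at 25 °C for 1 h with 200 nM protein in PBS, 2% BSA, salmon testes DNA and 50 µM zinc acetate, and washed. The protein was an N-terminal polyhistidine–DsRed transcription factor fusion from E. coli BL21-CodonPlus, purified on Ni–NTA.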
In the case of “ACCCCGACCCCTTCAATCGCGCCCGCCTCAGCCGCCTTCTCGGAGTCACCTAGTGCAG”, the binding signal is reported as 12600 fluorescence intensity (a.u.).
In the case of “GTGGTCGTGTGGATATACCTTCTCTTCGGTGGTGGAATTGCGGAGTCACCTAGTGCAG”, the binding signal is reported as 9320 fluorescence intensity (a.u.).
With “AACAGTTGACGCAGGTGGCAGAGTTGCTAGTTCTTGCCCTCGGAGTCACCTAGTGCAG” the binding signal was 61500 fluorescence intensity (a.u.).
For “CACTTGATTAATTTATCCTCTCCTCGCGTCGCTGTCGCGTCGGAGTCACCTAGTGCAG”, the binding signal was 8320 fluorescence intensity (a.u.).
“TGGTTGTGTTTGCTCTGGATTCCATCTTCCTCCTCAGCTCCGGAGTCACCTAGTGCAG” was tested, and the binding signal was 8270 fluorescence intensity (a.u.).
For “TGTTGTCATGAATAAAATCTTCACTTGTGCTGTCATTATTCGGAGTCACCTAGTGCAG”, the binding signal was 8240 fluorescence intensity (a.u.).
In the case of “ATCCCAAGTTGCCTTTTCATTGCTATATAAACTAGCTTGACGGAGTCACCTAGTGCAG”, the binding signal is reported as 10500 fluorescence intensity (a.u.).
With “GGGAGGGGTGAATGGTCATGATGAATGATGTTGCTGCATTCGGAGTCACCTAGTGCAG” the binding signal was 9590 fluorescence intensity (a.u.).
For “ACATATCTCCTCTCTGTATTTAGTCCCGCATTTTGAGAAGCGGAGTCACCTAGTGCAG”, the binding signal was 8050 fluorescence intensity (a.u.).
For “AGCTTCAACCACGTACATGTTGTTTCTCTGTATGCTTCTACGGAGTCACCTAGTGCAG”, the binding signal was 8960 fluorescence intensity (a.u.).
In the case of “TGCATTACAATGTACAATAAAAATTTTCCTCGTTTGGGTTCGGAGTCACCTAGTGCAG”, the binding signal is reported as 10600 fluorescence intensity (a.u.).
“GGGAAGGGGAGGGGTGGGCGGAAGGGGACGCCGGTGGTGGCGGAGTCACCTAGTGCAG” was tested, and the binding signal was 17900 fluorescence intensity (a.u.).
With “AATACAGTTTTACGCTATTCATGTTCAACGTTTGACGTTCCGGAGTCACCTAGTGCAG” the binding signal was 8500 fluorescence intensity (a.u.).
“ATCTTGTTTCTGGCCTTATGTGCGAAGCCCACAGCGACTACGGAGTCACCTAGTGCAG” was tested, and the binding signal was 10800 fluorescence intensity (a.u.).
For “CTCTCTACCTACACACTTTTTCTCGAATTTGCGTTAACCCCGGAGTCACCTAGTGCAG”, the binding signal was 8090 fluorescence intensity (a.u.).
With “ATACATGACGCCGTTGATTTTTTAATCAACGTTTGACCATCGGAGTCACCTAGTGCAG” the binding signal was 8210 fluorescence intensity (a.u.).
“GGGAGTGGGGTGGCATGGTGGGTTTTTCACCCAATAATTTCGGAGTCACCTAGTGCAG” was tested, and the binding signal was 9890 fluorescence intensity (a.u.).
“GGTTTTTGGTCAGGTCTGTGTTTACCTCGAATTCGAAAAGCGGAGTCACCTAGTGCAG” was tested, and the binding signal was 10200 fluorescence intensity (a.u.).
For “GCTCGTCTCTCGCGTTAACCCCTCGTGGCCTCAGCTCGTCCGGAGTCACCTAGTGCAG”, the binding signal was 8580 fluorescence intensity (a.u.).
With “GCTCATTGTGTTGTTCTTATTATCTTTACCCTCTACATCACGGAGTCACCTAGTGCAG” the binding signal was 13300 fluorescence intensity (a.u.).
With “CCAATTTTCCCAGGCTCTGCAACGTCTATCTTTTCATTTCCGGAGTCACCTAGTGCAG” the binding signal was 10100 fluorescence intensity (a.u.).
With “GCGTGGCGGAGGGTGGGGATGGCGTGAGCTTCAGACTGCCCGGAGTCACCTAGTGCAG” the binding signal was 11000 fluorescence intensity (a.u.).
With “GAATTTTCTGTGACATTTGCTAGTTGGTGTACACTTTATACGGAGTCACCTAGTGCAG” the binding signal was 10500 fluorescence intensity (a.u.).
With “AACTCTTGATGACACGCTGCCTTTTCTTTACACGGACGAACGGAGTCACCTAGTGCAG” the binding signal was 8140 fluorescence intensity (a.u.).
“TGGTGAGCTTCCTTTTCATCCATGGTGCCTCTTTTGAATTCGGAGTCACCTAGTGCAG” was tested, and the binding signal was 10600 fluorescence intensity (a.u.).
“TTTGGCTGGGTTGTGGGTCCCGAATTAGAGGTGGGGAGTGCGGAGTCACCTAGTGCAG” was tested, and the binding signal was 9060 fluorescence intensity (a.u.).
With “TTTTCCCCATCACGCGATTGTATTTGTTGCCTCCGAGAGACGGAGTCACCTAGTGCAG” the binding signal was 8930 fluorescence intensity (a.u.).
“CTCCGGATTTCCTGGTTTTTTTTTCTTCTTCTTCGTCGTCCGGAGTCACCTAGTGCAG” was tested, and the binding signal was 10700 fluorescence intensity (a.u.).
“TGCAGCTACACCCACTACTCCTCATCTCTCCTCTTCTTTACGGAGTCACCTAGTGCAG” was tested, and the binding signal was 10600 fluorescence intensity (a.u.).
In the case of “TGGGTGGGTGCGGCGTGGAGTGACGTGGCGGCGGGTGTGGCGGAGTCACCTAGTGCAG”, the binding signal is reported as 8590 fluorescence intensity (a.u.).
“TTCTTCTATCATGCCTAGCGCATGCTCACGAGTCAAGCCACGGAGTCACCTAGTGCAG” was tested, and the binding signal was 10400 fluorescence intensity (a.u.).
For “TTTTCTTCTCCTCGACGATCTTCTTCACGGCCGCCGGCGTCGGAGTCACCTAGTGCAG”, the binding signal was 9940 fluorescence intensity (a.u.).
With “ATTTTGTGATTTCGTATCATTGTATTGGTTGCAGGTCATTCGGAGTCACCTAGTGCAG” the binding signal was 8840 fluorescence intensity (a.u.).
With “GCGAAAATATCCCTGCCCGGCTGCCTCTCTTCCATTCCGTCGGAGTCACCTAGTGCAG” the binding signal was 8480 fluorescence intensity (a.u.).
With “GCCAAAATAATACTATCACCTTGACTTTGCCTTGACTTACCGGAGTCACCTAGTGCAG” the binding signal was 9720 fluorescence intensity (a.u.).
“GTGTAAATTAAATTTGGCGTTTTGTATTTGTGGAGGGACACGGAGTCACCTAGTGCAG” was tested, and the binding signal was 8960 fluorescence intensity (a.u.).
With “ATGGTTTATCTTTTTTTTTTTAACCTGGTCATGTCATTCTCGGAGTCACCTAGTGCAG” the binding signal was 10000 fluorescence intensity (a.u.).
For “GGAGGTGGGGAGGGGAGGAGAGGGGAAGAAGGAAGAAAAACGGAGTCACCTAGTGCAG”, the binding signal was 13300 fluorescence intensity (a.u.).
In the case of “AACCTATTTTTACGAGATATTTAACTGTTTACTACTTTTACGGAGTCACCTAGTGCAG”, the binding signal is reported as 8060 fluorescence intensity (a.u.).
“TCGCCCGCCCGCGGATCGCTCTCGCGCTGCCGAATCTCAACGGAGTCACCTAGTGCAG” was tested, and the binding signal was 10000 fluorescence intensity (a.u.).
With “CGTGTCTTGTGTGTTTCCTGTCTCGCGAGCCTTCCACATACGGAGTCACCTAGTGCAG” the binding signal was 15000 fluorescence intensity (a.u.).
For “GATGGGAGTAAAGTTGCTTAGTGGGTGAGAGAGTGAATACCGGAGTCACCTAGTGCAG”, the binding signal was 8090 fluorescence intensity (a.u.).
